Primary screen of a compound library

Protein sequences, listed by entry. Tags and fused reporters are not part of them. Residues count along the entry.
UniProt A4I591, 1-473: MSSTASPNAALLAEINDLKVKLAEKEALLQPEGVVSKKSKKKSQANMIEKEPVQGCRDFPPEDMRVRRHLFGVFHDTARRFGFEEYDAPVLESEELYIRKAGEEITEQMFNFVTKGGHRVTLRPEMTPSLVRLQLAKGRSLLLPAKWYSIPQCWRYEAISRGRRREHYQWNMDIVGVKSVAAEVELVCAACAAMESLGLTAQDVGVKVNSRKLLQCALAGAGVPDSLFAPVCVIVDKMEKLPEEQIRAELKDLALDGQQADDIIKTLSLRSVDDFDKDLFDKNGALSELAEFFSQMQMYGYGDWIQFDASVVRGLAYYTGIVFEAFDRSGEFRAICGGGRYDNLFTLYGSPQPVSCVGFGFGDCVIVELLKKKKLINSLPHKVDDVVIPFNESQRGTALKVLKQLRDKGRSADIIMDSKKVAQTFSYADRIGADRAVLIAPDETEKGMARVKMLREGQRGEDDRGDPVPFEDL

Results are given as percent effect.
The controls that fix the scale are not given in the record; negative values are as filed.
This is an unselected part of the compounds tested.

A: 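Assay of Toxoplasma gondii numbers, read through their beta-galactosidase reporter with a colour substrate. Compounds at 10 µM. Higher reads as fewer parasites (inferred from which compounds were picked for retests). Of about 67,000 compounds tested this way, about 260 (0.38%) reached 50% or more in at least one test.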
B: 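Histidine-tRNA ligase, Leishmania infantum (UniProt A4I591). Enzyme assay of histidyl-tRNA synthetase; the read-out is not stated. Concentration: 30 µM. Direction is inferred from retests: higher values go with stronger inhibition. The assay is labelled LdHisRS but filed under L. infantum. Of about 69,000 compounds tested this way, about 410 (0.6%) reached 50% or more in at least one test.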

{"smiles": "Cn1cc(CN2CCN3C[C@H](Oc4cccnc4)C[C@H]3C2)cn1", "B": 14.29}
{"smiles": "O=C(C1CC1)N1CCC2(CCN(Cc3cccc(F)c3)CC2)CC1", "B": 19.44}
{"smiles": "CC(=O)C1(c2ccccc2)CCN(C(=O)c2ccn3nnnc3c2)CC1", "A": -6.454, "B": 16.46}
{"smiles": "O=C(c1sccc1C1CC1)N1CCN(Cc2cscn2)CC1", "A": 4.196, "B": -0.885}
{"smiles": "COCCNC(=O)[C@H]1C[C@@](CC(C)C)(C(=O)O)N(C)[C@H]1c1cccnc1", "A": 9.56, "B": 21.13}
{"smiles": "[H][C@]12CN(c3ccnc(N)n3)CC[C@@]1(O)CCN(S(C)(=O)=O)C2", "A": 1.072}
{"smiles": "CC(NC(=O)C1=NN(C)C(=O)CC1)c1ccccc1Cl", "stereo": "stereo not shown", "A": 7.854, "B": 24.69}
{"smiles": "[H][C@]12CCN(Cc3cccc(C)n3)C[C@@]1([H])OCCN(c1ccc(C)nn1)C2", "A": 0.6999}
{"smiles": "COCCS(=O)(=O)NC(=O)c1nnn(-c2ccc(F)cc2)c1C1CC1", "A": -31.03, "B": 2.679}
{"smiles": "CC[C@@H](C)[C@@H](N)C(=O)Nc1cccc(-c2cnc(N(C)CCO)nc2)c1", "A": -27.7, "B": -5.714}
{"smiles": "[H][C@@]12CCN(C(N)=O)C[C@]1([H])[C@@H](CNC(=O)c1ccnnc1)OC2", "A": -23.72}
{"smiles": "CCOc1ccccc1OC1CCN(C(=O)c2nc(=O)[nH][nH]2)CC1", "A": -17.64, "B": 15.2}
{"smiles": "c1cnnc(NCC2CN(CCn3cccn3)CCO2)c1", "stereo": "stereo not shown", "A": 4.863, "B": 10.32}
{"smiles": "Cc1ccc(NC2CCN(C(=O)c3cccc4ncccc34)CC2)nn1", "A": 0.4902, "B": 28.38}
{"smiles": "NC(=O)c1c[nH]nc1NCc1ccc2c(c1)OCO2", "A": 6.494, "B": 1.124}
{"smiles": "O=C(O)C(F)(F)F.O=C(O)C(F)(F)F.[H][C@@]12CCN(C(=O)c3ccc(C)nc3)[C@]1([H])CCC(=O)N2CCN(C)C", "A": -1.755}
{"smiles": "O=C(c1ccc[nH]1)N1CCC2(CC1)COCCN(c1nccs1)C2", "A": -18.16, "B": 28.21}
{"smiles": "CNc1ncc(-c2ccnn2C2CCN(C(C)=O)CC2)cn1", "A": -6.29, "B": 14.29}
{"smiles": "O=C(O)C(F)(F)F.[H][C@]12CN(Cc3cc(C)on3)C[C@@]1([H])OCCN(C(=O)c1ccco1)C2", "A": -5.577}
{"smiles": "CC(C)n1ccc2ccc(C(=O)NC3CN4CCC3CC4)cc21", "stereo": "stereo not shown", "A": 5.979, "B": 5.263}
{"smiles": "[H][C@@]12CCCO[C@]1([H])[C@@H](N(C)Cc1cncnc1)CN2Cc1ccco1", "A": 13.56}
{"smiles": "Fc1cnc(N2C[C@H]3CN(Cc4cccc(F)c4)C[C@H]3C2)nc1", "B": 12.28}
{"smiles": "CCN1CC2(CC1=O)CN(Cc1ccccn1)CCN(C(C)=O)C2.O=C(O)C(F)(F)F.O=C(O)C(F)(F)F", "stereo": "stereo not shown", "A": -28.82}
{"smiles": "O=C(O)C(F)(F)F.c1cnc(N2CC3(CCN(CC4CCOC4)CC3)c3ccccc32)nc1", "stereo": "stereo not shown", "A": -23.67}
{"smiles": "CN(C)C(=O)N1Cc2nnn(C)c2C(COCc2cccnc2)C1.O=C(O)C(F)(F)F", "stereo": "stereo not shown", "A": 5.131}
{"smiles": "CCCNCc1cn(C)nc1-c1cccnc1", "B": 0}
{"smiles": "CCC(NCCn1cccn1)C(=O)Nc1cc(C)on1", "stereo": "stereo not shown", "A": 4.208, "B": 0}
{"smiles": "CN(Cc1noc2c1CCCC2)C(=O)Nc1cncc(F)c1", "A": 3.718, "B": 6.557}
{"smiles": "Cc1nc(CN2CCCN(C(=O)CCc3ccco3)CC2)cs1", "A": 4.068, "B": 22.81}
{"smiles": "Cc1cccc(COC[C@@]23CCC[C@@H]2CN(C(=O)Cc2ccco2)C3)n1", "B": 26}
{"smiles": "O=C1COc2cc(C(=O)NS(=O)(=O)c3ccc(F)cc3F)ccc2N1", "A": -5.383, "B": 7.895}
{"smiles": "CN(C)S(=O)(=O)NC1CCCc2c1cnn2-c1ccc(C(C)(C)C)cc1", "stereo": "stereo not shown", "A": 13.04, "B": 13.33}
{"smiles": "CC(c1ccc(Cl)cc1)N1CCN(CCS(N)(=O)=O)CC1", "stereo": "stereo not shown", "A": 0.2013, "B": -4.839}
{"smiles": "c1nc(N2CCOCC2)sc1-c1cncn1CCCN1CCCCC1", "B": 20.98}
{"smiles": "CCN(CC(=O)Nc1cc(Cl)ccc1C)C(=O)c1cnccn1", "A": 19.42, "B": 18.58}
{"smiles": "COCC1CN(Cc2ccc(C)o2)Cc2cn(C)nc21.O=C(O)C(F)(F)F.O=C(O)C(F)(F)F", "stereo": "stereo not shown", "A": 2.03}
{"smiles": "[H][C@]12CN(c3ccccn3)CCN1C[C@H](CO)[C@H]2c1ccccc1", "A": -12.34}
{"smiles": "Cc1nc(C2CCCNC2)cc(N(C)CCc2ccccc2)n1", "stereo": "stereo not shown", "A": -16.79, "B": 14.88}
{"smiles": "O=C(O)C(F)(F)F.O=C(O)C(F)(F)F.O=C(O)c1cc2c(nc1NCC1CC1)CCN(C1CCOC1)CC2", "stereo": "stereo not shown", "A": -2.032}
{"smiles": "CCOCC(=O)Nc1nccn1Cc1ccc(Br)cc1", "A": -3.176, "B": 0}

4 of the entries, repeated:

* O=C(O)C(F)(F)F.[H][C@]12CN(Cc3cc(C)on3)C[C@@]1([H])OCCN(C(=O)c1ccco1)C2 : A: -5.577%
* [H][C@]12CN(c3ccnc(N)n3)CC[C@@]1(O)CCN(S(C)(=O)=O)C2 : A: 1.072%
* CN(C)C(=O)N1Cc2nnn(C)c2C(COCc2cccnc2)C1.O=C(O)C(F)(F)F (stereo not shown) : A: 5.131%
* CC(C)n1ccc2ccc(C(=O)NC3CN4CCC3CC4)cc21 (stereo not shown) : A: 5.979%; B: 5.263%

Measurements from “University of Dundee, Small-Polar-MMV Screening Library” (2021), ChEMBL document CHEMBL3988442.